# Assay: Disease progression: plasma of ALS subjects, matched-pairs T-test month 1 vs month 12 (Table 18)
# Format: in vivo, human
# Settings: mean plasma level, month 1 vs month 12 after screening; positive = increase as disease progressed; 37 ALS patients
row,Compound,% Change with disease progression [%]
1,O=C(O)CC(O)C(=O)O (stereo not shown) [malic acid],13
2,CC(O)CC(=O)O (stereo not shown) [3-hydroxybutanoic acid],1
3,CCCCCCCCC(=O)O [Nonanate],0
4,NC(=O)NC1NC(=O)NC1=O (stereo not shown) [Allantoin],−8
5,N[C@@H](CCC(=O)O)C(=O)O [glutamic acid],5
6,N[C@@H](CO)C(=O)O [Serine],28
7,N[C@@H](Cc1ccc(O)cc1)C(=O)O [Tyrosine],−8
8,CC(C)CCC[C@@H](C)[C@H]1CC[C@H]2[C@@H]3CC=C4C[C@@H](O)CC[C@]4(C)[C@H]3CC[C@]12C [Cholesterol],−3
9,O=C[C@@H](O)[C@H](O)[C@H](O)CO [Arabinose],−22
10,N=C(N)NCCCC(=O)O [4-Guanidinobutanoic acid],−16
11,O=C(O)[C@@H]1CCCN1 [Praline],−6
12,CCCCCCCCCCCCCC(=O)O [tetradecanoic acid],5
13,NCC(=O)O [Glycine],69
14,CCCCCC/C=C\CCCCCCCC(=O)O [palmitoleic acid],29
15,O=C(O)CNC(=O)c1ccccc1 [hippuric acid],−37
16,N[C@@H](CC(=O)O)C(=O)O [Aspartate],1
17,N[C@@H](Cc1ccccc1)C(=O)O [Phenylalanine],−3
18,N[C@@H](Cc1c[nH]cn1)C(=O)O [Histidine],4
19,CC(C)C[C@H](N)C(=O)O [Leucine],10
20,NC(=O)CC[C@H](N)C(=O)O [Glutamine],65
21,CCCCCCCCCCCCCCCCCC(=O)O [octadecanoic acid],−1
22,C[C@H](N)C(=O)O [Alanine],16
23,CC(C)[C@H](N)C(=O)O [Valine],12

# Assay: Metabolomic profiling of blood plasma, 62 ALS subjects vs 62 control subjects (Example 3; Tables 7, 8)
# Format: in vivo, human
# Settings: blood plasma; ALS mean level compared to control mean level; positive = increase in ALS
row,Compound,% change in ALS [%]
1,O=C(O)CC(O)C(=O)O (stereo not shown) [malic acid],−8
2,CC(O)CC(=O)O (stereo not shown) [3-hydroxybutanoic acid],−4
3,CCCCCCCCC(=O)O [Nonanate],−4
4,NC(=O)NC1NC(=O)NC1=O (stereo not shown) [Allantoin],−3
5,N[C@@H](CCC(=O)O)C(=O)O [glutamic acid],47
6,N[C@@H](CO)C(=O)O [Serine],−4
7,N[C@@H](Cc1ccc(O)cc1)C(=O)O [Tyrosine],−1
8,CC(C)CCC[C@@H](C)[C@H]1CC[C@H]2[C@@H]3CC=C4C[C@@H](O)CC[C@]4(C)[C@H]3CC[C@]12C [Cholesterol],10
9,O=C[C@@H](O)[C@H](O)[C@H](O)CO [Arabinose],0
10,N=C(N)NCCCC(=O)O [4-Guanidinobutanoic acid],−7
11,O=C(O)[C@@H]1CCCN1 [Praline],3
12,CCCCCCCCCCCCCC(=O)O [tetradecanoic acid],−11
13,NCC(=O)O [Glycine],9
14,CCCCCC/C=C\CCCCCCCC(=O)O [palmitoleic acid],−17
15,O=C(O)CNC(=O)c1ccccc1 [hippuric acid],6
16,N[C@@H](CC(=O)O)C(=O)O [Aspartate],3
17,N[C@@H](Cc1ccccc1)C(=O)O [Phenylalanine],−2
18,N[C@@H](Cc1c[nH]cn1)C(=O)O [Histidine],−7
19,CC(C)C[C@H](N)C(=O)O [Leucine],3
20,NC(=O)CC[C@H](N)C(=O)O [Glutamine],−8
21,CCCCCCCCCCCCCCCCCC(=O)O [octadecanoic acid],11
22,C[C@H](N)C(=O)O [Alanine],−3
23,CC(C)[C@H](N)C(=O)O [Valine],7

# Same assay, conditions: blood plasma; ALS mean level vs control mean level; 62 ALS vs 62 control subjects; analytical platform GC-MS
row,Compound,% change in ALS [%]
1,CCCCCCCCC(=O)O [Nonanate],−4
2,N[C@@H](CCC(=O)O)C(=O)O [glutamic acid],47
3,N[C@@H](CO)C(=O)O [Serine],−4
4,CC(C)CCC[C@@H](C)[C@H]1CC[C@H]2[C@@H]3CC=C4C[C@@H](O)CC[C@]4(C)[C@H]3CC[C@]12C [Cholesterol],10
5,O=C(O)[C@@H]1CCCN1 [Praline],3
6,CCCCCCCCCCCCCC(=O)O [tetradecanoic acid],−11
7,NCC(=O)O [Glycine],9
8,CCCCCC/C=C\CCCCCCCC(=O)O [palmitoleic acid],−17
9,N[C@@H](Cc1c[nH]cn1)C(=O)O [Histidine],−7
10,CC(C)C[C@H](N)C(=O)O [Leucine],3
11,NC(=O)CC[C@H](N)C(=O)O [Glutamine],−8
12,CCCCCCCCCCCCCCCCCC(=O)O [octadecanoic acid],11
13,C[C@H](N)C(=O)O [Alanine],−3
14,CC(C)[C@H](N)C(=O)O [Valine],7

# Same assay, conditions: blood plasma; ALS mean level vs control mean level; 62 ALS vs 62 control subjects; analytical platform LC-MS
row,Compound,% change in ALS [%]
1,O=C(O)CC(O)C(=O)O (stereo not shown) [malic acid],−8
2,N=C(N)NCCCC(=O)O [4-Guanidinobutanoic acid],−7
3,O=C(O)CNC(=O)c1ccccc1 [hippuric acid],6
4,N[C@@H](CC(=O)O)C(=O)O [Aspartate],3
5,N[C@@H](Cc1ccccc1)C(=O)O [Phenylalanine],−2

# Assay: Disease progression: plasma of 40 ALS subjects, random coefficient regression analysis over time (Table 16)
# Format: in vivo, human
# Settings: common slope of plasma metabolite level over month (0, 1, 6, 12), positive = level increased over time, negative = decreased
row,Compound,SLOPE
1,O=C(O)CC(O)C(=O)O (stereo not shown) [malic acid],0.019
2,CC(O)CC(=O)O (stereo not shown) [3-hydroxybutanoic acid],0.010
3,CCCCCCCCC(=O)O [Nonanate],−0.001
4,NC(=O)NC1NC(=O)NC1=O (stereo not shown) [Allantoin],0.005
5,N[C@@H](CCC(=O)O)C(=O)O [glutamic acid],0.006
6,N[C@@H](CO)C(=O)O [Serine],0.026
7,N[C@@H](Cc1ccc(O)cc1)C(=O)O [Tyrosine],−0.008
8,CC(C)CCC[C@@H](C)[C@H]1CC[C@H]2[C@@H]3CC=C4C[C@@H](O)CC[C@]4(C)[C@H]3CC[C@]12C [Cholesterol],−0.004
9,O=C[C@@H](O)[C@H](O)[C@H](O)CO [Arabinose],−0.016
10,N=C(N)NCCCC(=O)O [4-Guanidinobutanoic acid],−0.016
11,O=C(O)[C@@H]1CCCN1 [Praline],−0.004
12,CCCCCCCCCCCCCC(=O)O [tetradecanoic acid],0.003
13,NCC(=O)O [Glycine],0.070
14,CCCCCC/C=C\CCCCCCCC(=O)O [palmitoleic acid],0.015
15,O=C(O)CNC(=O)c1ccccc1 [hippuric acid],−0.040
16,N[C@@H](CC(=O)O)C(=O)O [Aspartate],−0.002
17,N[C@@H](Cc1ccccc1)C(=O)O [Phenylalanine],−0.001
18,N[C@@H](Cc1c[nH]cn1)C(=O)O [Histidine],0.006
19,CC(C)C[C@H](N)C(=O)O [Leucine],0.010
20,NC(=O)CC[C@H](N)C(=O)O [Glutamine],0.049
21,CCCCCCCCCCCCCCCCCC(=O)O [octadecanoic acid],−0.002
22,C[C@H](N)C(=O)O [Alanine],0.017
23,CC(C)[C@H](N)C(=O)O [Valine],0.011

# — patent US8841077B2, “Biomarkers for amyotrophic lateral sclerosis and methods using the same” (Massachusetts General Hospital, priority 2006, dated 2014)
